# The other results are listed elsewhere or left out.
# Legend:
# Assay in all cases: protein microarray (ProtoArray v5.0), streptavidin-Alexa Fluor 647
# Conditions in all cases: 3'-biotin; 20 mM Tris (pH 7.5), 5 mM MgCl2, 100 mM KCl, 0.1% Tween-20, A/T-rich and random oligonucleotide blockers; temperature not stated; high values mean tight binding
# [1] = tested on: High affinity cAMP-specific and IBMX-insensitive 3prime,5prime-cyclic phosphodiesterase 8A (human)
# [2] = tested on: Histone H2B type 1-D (human)
# [3] = tested on: Histone H2B type 1-O (human)
# [4] = tested on: Histone deacetylase 10 (human)
# [5] = tested on: Homeobox protein BarH-like 1 (human)
# [6] = tested on: Homeobox protein Hox-B6 (human)
# [7] = tested on: Homeobox protein Meis1 (human)
# [8] = tested on: Hsp90 co-chaperone Cdc37-like 1 (human)
# [9] = tested on: Huntingtin-interacting protein M (human)
# ICEBERG (human) = tested on: ICEBERG (human)
sequence,measurement,setting,value
GGGGACAGGGGTATGGGGAGGGG [G4-3 biotinylated (CtG)],binding signal,[1],-0.33 z-score
same,binding signal,[2],4.46 z-score
same,binding signal,[3],3.22 z-score
same,binding signal,[4],-0.33 z-score
same,binding signal,[5],3.21 z-score
same,binding signal,[6],-0.335 z-score
same,binding signal,[7],-0.333 z-score
same,binding signal,[8],-0.34 z-score
same,binding signal,[9],-0.331 z-score
same,binding signal,ICEBERG (human),-0.314 z-score

# 2 entries drawn at random from those above:
sequence,measurement,setting,value
GGGGACAGGGGTATGGGGAGGGG [G4-3 biotinylated (CtG)],binding signal,[1],-0.33 z-score
same,binding signal,[2],4.46 z-score
